Data on five sequences can be found in patent publication US20160115201, “PEPTIDES BINDING TO PARALLEL-STRANDED G-QUADRUPLEXES” (NANYANG TECHNOLOGICAL UNIVERSITY, published 2016).

As a reminder, the Kd is the equilibrium constant for the complex coming apart.

Holding throughout (test): EMSA
Background: In EMSA bound probe runs differently from free probe, usually more slowly.

The target in one data set is Rhau18 (Rhau18sm) (UniProt Q9H2U1). As to conditions: hybrid 3+1; label: FAM or TAMRA; folded or branched DNA.
Data set [1] has as its target T1, Rhau55 (N-terminal fragment of RHAU/DHX36) (UniProt Q9H2U1).
T1 sequence: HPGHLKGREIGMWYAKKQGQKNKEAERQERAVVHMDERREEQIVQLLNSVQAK
As to conditions: estimated, dilute K+ solution, purified recombinant protein, protein details: expressed in E. coli, label: FAM or TAMRA, folded or branched DNA.

The next data set has as its system Rhau14. The note with it: 70 mM KCl, 20 mM phosphate pH 6.8; synthetic protein; folded or branched DNA.
The next data set relates to Rhau16. As to conditions: synthetic protein; protein details: synthetic 16-residue peptide, residues not shown; folded or branched DNA.

For part of these data: Negatives hold for the conditions tested. For part of these data: Tags and fusion partners may be left off the protein sequences shown. For part of these data: For at least one entry, the source does not settle the construct or the ends of the probe. Bounds are passed on as bounds.

For the sequence “TAGGGTTAGGGTTAGGGTTAGGG [Htelo1 in dilute condition]”, in the data set with Rhau18 (Rhau18sm), the binding result is on record as “no binding”. In the case of “AGGGCTAGGGCTAGGGCTAGGG [Htelo4 in dilute condition]”, the Kd in data set [1] (printed Heto14) was greater than 10 µM. On to “GGGTTAGGGTTAGGGTTAGGGT [Htelo3 in dilute condition]”, for which, in data set [1], the Kd was greater than 10 µM. Take “TAGGGTTAGGGTTAGGGTTAGGGTT [Htelo2 in dilute condition]”: in data set [1], the Kd is greater than 10 µM. In the case of TTGGGTGGGTGGGTGGGT [T95_2T], the figures for the binding result in the data set with Rhau14 and in the data set on Rhau16 were “no binding” and “binds”, respectively.
